# The whole screen tested about 2,000 compounds, of which fewer than 10 were called active.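 Rule for the calls: active = growth inhibition of at least 75% in every replicate, which also brings the mean inhibition to 75% or more; inconclusive = mean inhibition 75% or more but some replicate under 75%; inactive = the rest.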 The list shows a part of the results.
# Experiment: reduced viability of yeast carrying PfHsp90 – S. cerevisiae, BacTiter-Glo luminescence, antimalarial PfHsp90 inhibitor project, primary screen (AID 504594);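 note: 0% = DMSO neutral control wells and 100% = 20 µM radicicol control wells; higher value means stronger growth inhibition because the sign is flipped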
# Details: S. cerevisiae expressing PfHsp90, BacTiter-Glo growth, 48 h; at 9.4 µM; stronger effect = higher value
row,SMILES,growth inhibition
1,CSc1cccc(NC(=O)/C=C/c2ccccc2)c1,inactive: -2.48%
2,COc1c2occc2c(OC)c2c(=O)cc(C)oc12,inactive: 5.39%
3,COc1ccc(CCN(C)CCCC(C#N)(c2cc(OC)c(OC)c(OC)c2)C(C)C)cc1OC (stereo unspecified),inactive: -2.04%
4,O=C(O)C(O)c1ccccc1 (stereo unspecified),inactive: -20.3%
5,CC(C)(C)C(=O)N1CCCC1C(=O)O (stereo unspecified),inactive: -5.36%
6,COc1ccc(-c2coc3cc(OC(=O)N4CCOCC4)ccc3c2=O)cc1,inactive: -8.44%
7,COc1cccc2c1OCC1COc3c(c(=O)n(C)c(=O)n3C)C21 (stereo unspecified),inactive: 1.47%
8,CC1(C)CC(NC(=O)C23CCC(C)(C(=O)C2=O)C3(C)C)CC(C)(C)N1 (stereo unspecified),inactive: 4.32%
9,N=c1c[n+](N2CCOCC2)[n-]o1,inactive: -3.2%
10,CN1CCN(CCCN2c3ccccc3Sc3ccc(Cl)cc32)CC1,inactive: 11.5%
11,CC(C)CC(=O)OC1C(N2CCOCC2)c2c(ccc(/C=C/C(=O)N3CCOCC3)c2O)OC1(C)C (stereo unspecified),inactive: 5.89%
12,Nc1cccc2c1nnn2C1OC(CO)C(O)C(O)C1O (stereo unspecified),inactive: -0.754%
13,Cc1ccccc1C(=O)Oc1ccc(Sc2ccc(O)cc2)cc1,inactive: 2.85%
14,O=C(NCCN1CCCCC1)c1c(O)c2ccccc2[nH]c1=O,inactive: -5.79%
15,CCN(CC)C1=C(Cl)C(=O)C(Cl)C12OCCO2 (stereo unspecified),inactive: -8.81%
16,Cc1ccc(N2CCN(C(=S)c3ccc(-c4cccc([N+](=O)[O-])c4)o3)CC2)cc1,inactive: 16.7%
17,COc1ccc(-c2cc(=Nc3ccc(C)cc3)c3ccccc3o2)cc1,inactive: -19.5%
18,Cc1ccc(C(=O)NC(=S)NCCCN2CCOCC2)cc1,inactive: -0.501%
19,CCOC(=O)C1C(=O)CC(C)(O)C(C(=O)OCC)C1/C=C/c1ccccc1 (stereo unspecified),inactive: 3.38%
20,CCc1cn([C@H]2C[C@H](O)[C@@H](CO)O2)c(=O)[nH]c1=O,inactive: 1.39%
21,CSCCC(NC(=O)/C(=C/c1ccc2c(c1)OCO2)NC(=O)c1cccc([N+](=O)[O-])c1)C(=O)O (stereo unspecified),inactive: -8.96%

row,SMILES,growth inhibition
1,CC(C)c1ccc(NC(=O)CNS(=O)(=O)c2ccc(F)cc2)cc1,inactive: 5.55%
2,Oc1ccccc1OCCOc1ccccc1OCCOc1ccccc1O,inactive: 1.41%
3,CCOCC(=O)Nc1nc2ccccc2s1,inactive: 2.46%
4,O=c1[nH]c(=O)n(C2CCCO2)cc1F (stereo unspecified),inactive: -0.727%
5,CC(NCCC(c1ccccc1)c1ccccc1)c1ccccc1 (stereo unspecified),inactive: 3.17%
6,CC(C)c1ccccc1OCCNC(=S)NC(=O)c1cccnc1,inactive: 4.15%
7,Cc1ccc2nc(C)c3c(c2c1)OC(C(C)(Cl)Br)C3 (stereo unspecified),inactive: -1.28%
8,CN(C)c1nc(N(C)C)nc(N(C)C)n1,inactive: 7.13%
9,O=C(CCc1c[nH]c2ccccc12)NCc1ccco1,inactive: -4.69%
10,COC(=O)CSc1nc2ccc(N)cc2s1,inactive: -7.52%
11,Nc1ccc2[nH]ncc2c1,inactive: 6.95%
12,C=C(C)COc1ccc(-c2nc(N)ncc2-c2ccc(OC)cc2)c(O)c1,inactive: -13.9%
13,Cc1ccc(S(=O)(=O)N2CCC(C(=O)N[C@@H](C)C(=O)NC3CCS(=O)(=O)C3)CC2)cc1 (stereo partly specified),inactive: -8.37%
14,NNC(=O)c1cc(O)c(O)c(O)c1,inactive: -2.58%
15,O=C(O)c1cc(-c2ccccc2)nc2ccccc12,inactive: -0.536%
16,CC(=O)O[C@]1(C(C)=O)CC[C@H]2[C@@H]3C[C@H](C)C4=CC(=O)CC[C@]4(C)[C@H]3CC[C@@]21C,inactive: -7.46%
17,C[C@H]1C[C@@H]2[C@H]([C@@H](O)C[C@@]3(C)[C@H]2CC[C@]3(O)C(=O)CO)[C@@]2(C)C=CC(=O)C=C12,inactive: 1.1%
18,O=C1[C@@H]2[C@H](Cc3ccc(O)cc3)N[C@]3(C(=O)Nc4ccccc43)[C@@H]2C(=O)N1c1ccc(F)cc1,inactive: 6.94%
19,CCOC(=O)N1CCN(Cc2nc(Cc3cccc(F)c3)no2)CC1,inactive: 3.92%
20,COc1ccc(NC(=O)Nc2ccc(C(C)C)cc2)cc1,inactive: 0.108%
21,COc1cccc(NC(=O)C2CC(=O)OC23CCOC(C)(C)C3)c1 (stereo unspecified),inactive: 2.76%

row,SMILES,growth inhibition
1,CC12CCC(C(=O)NCc3ccccn3)(OC1=O)C2(C)C (stereo unspecified),inactive: -9.47%
2,COC(=O)c1ccc(-c2ncc(-c3cccc4ccccc34)o2)cc1,inactive: -6.2%
3,O=C(Nc1ccccc1C(=O)N1CCCCCC1)c1ccccc1Cl,inactive: -13%
4,CCCNCC(O)COc1ccccc1C(=O)CCc1ccccc1 (stereo unspecified),inactive: -0.563%
5,CN1CCc2c(n(CC(O)CN(CCO)CCO)c3ccccc23)C1=O (stereo unspecified),inactive: 2.23%
6,O=[N+]([O-])c1cccc2cn[nH]c12,inactive: -7.02%
7,COc1ccc(-c2noc(-c3ccccc3-c3ccccc3)n2)cc1,inactive: -0.851%
8,O=C(Nc1ncc2c(n1)CC(c1ccco1)CC2=O)c1ccco1 (stereo unspecified),inactive: -12.4%
9,COC(=O)c1[nH]c2ccc(C)cc2c1NC(=O)CN1CCc2cc(OC)c(OC)cc2C1,inactive: -11.5%
10,COc1ccc(-c2[nH]ncc2C=O)cc1OC,inactive: 7.91%
11,COc1ccc(C2CNC(=O)C2)cc1OC1CCCC1 (stereo unspecified),inactive: -4.56%
12,COc1cccc2c(=O)c(C/C=C(/C)Cl)c(C)[nH]c12,inactive: 18.2%
13,CC(C)c1ccc(/C=C/C(=O)O)cc1,inactive: -10.9%
14,N#Cc1c2c(c(-c3ccccc3)[nH]c1=O)CCCC2,inactive: 21.3%
15,Cc1nc(-c2coc3c(CN(C)C)c(O)ccc3c2=O)cs1,inactive: -0.278%
16,Cc1c(O)c(=O)ccn1C,inactive: 5.38%
17,CCC(=O)O[C@]1(C(=O)CCl)[C@@H](C)C[C@H]2[C@@H]3CCC4=CC(=O)C=C[C@]4(C)[C@@]3(F)[C@@H](O)C[C@@]21C,inactive: -0.602%
18,Cc1ccc(C(=O)N2CC3(C(C)C)CN(C(=O)c4ccc(C)cc4)CC(C(C)C)(C2)C3=O)cc1,inactive: 2.69%
19,CN(C)CC/C=C1\c2ccccc2Sc2ccc(Cl)cc21,inactive: 2.84%

# Of the compounds above, 2 contain a cyano group:
row,SMILES,growth inhibition
3,COc1ccc(CCN(C)CCCC(C#N)(c2cc(OC)c(OC)c(OC)c2)C(C)C)cc1OC (stereo unspecified),inactive: -2.04%
14,N#Cc1c2c(c(-c3ccccc3)[nH]c1=O)CCCC2,inactive: 21.3%

# A different layout for part of the listing above.
row	SMILES	growth inhibition
6	O=[N+]([O-])c1cccc2cn[nH]c12	inactive: -7.02%
13	CC(C)c1ccc(/C=C/C(=O)O)cc1	inactive: -10.9%
